PubChem BioAssay AID686938, Drosophila RNAi Screening Center, 2013
The deposit covers about 23,000 reagents; below is an unselected part of those that have a named target and a result. In the full data, 75 (0.33%) are marked active. 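Raw plate signals without normalisation; calls rest on plate z-scores that were not deposited; ratio present for only 364 wells.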 Names joined by + are all predicted targets of the reagent. Reagent sequences are not shown. Not stated in the record: the dose of the treatment.

Test: 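Knock-downs reducing store-operated calcium influx in Drosophila cells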 (primary screen)
Cell system: Drosophila S2R+ cells
Reagents: long dsRNA against Drosophila genes, about 0.25 µg dsRNA per well, roughly 10,000 cells
Duration: 5 days of knock-down before the calcium assay
Conditions: thapsigargin (SERCA pump blocker) to empty calcium stores; entry signal taken 4 min after adding it
Detection: 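Duplicate raw fluo-4 intensities per well from a plate reader, at rest and four minutes after thapsigargin emptied calcium stores; entry-to-rest ratio filled for only some wells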
Direction: calcium entry signal: higher = stronger calcium signal after store depletion; resting calcium signal: higher = higher resting calcium signal
Call rule: 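Hit if the duplicate-averaged plate z-score for entry over resting signal is under −3; wells with weak total dye signal (Fmax z < −2) or more than 5 off-targets removed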
Calls: active = strongly reduced calcium entry; inactive = no strong reduction

The first 2 records, to show the layout:
target gene	amplicon	calcium entry signal, replicate 1 (fluorescence units)	calcium entry signal, replicate 2 (fluorescence units)	resting calcium signal, replicate 1 (fluorescence units)	resting calcium signal, replicate 2 (fluorescence units)	activity call
CG30065 (GeneID 246431)	DRSC05420	2.36e7	4.36e7	1.18e7	1.92e7	inactive
Idua (GeneID 34544)	DRSC02941	4.65e7		2.23e7		inactive

Main list, repeating the preview:
target gene	amplicon	calcium entry signal, replicate 1 (fluorescence units)	calcium entry signal, replicate 2 (fluorescence units)	resting calcium signal, replicate 1 (fluorescence units)	resting calcium signal, replicate 2 (fluorescence units)	activity call
CG30065 (GeneID 246431)	DRSC05420	2.36e7	4.36e7	1.18e7	1.92e7	inactive
Idua (GeneID 34544)	DRSC02941	4.65e7		2.23e7		inactive
Tsp47F (GeneID 36230)	DRSC07325	2.34e7	2.83e7	1.35e7	1.60e7	inactive
lncRNA:CR34046 (GeneID 12798059)	DRSC14075	4.94e7	4.05e7	2.71e7	1.70e7	inactive
CG17105 (GeneID 34466)	DRSC02574	3.41e7	4.17e7	1.85e7	1.89e7	inactive
CG13002 (GeneID 32681)	DRSC19521	3.21e7	3.33e7	1.71e7	1.34e7	inactive
CG14691 (GeneID 41287)	DRSC14914	3.53e7	3.91e7	1.72e7	1.94e7	inactive
CG4069 (GeneID 39437)	DRSC10396	5.43e7	4.72e7	3.53e7	1.86e7	inactive
CG7164 (GeneID 34061)	DRSC03018	5.90e7	5.10e7	1.88e7	1.96e7	inactive
CG15395 (GeneID 33447)	DRSC00409	3.30e7	3.45e7	1.54e7	1.59e7	inactive
CG7126 (GeneID 42202)	DRSC16201	4.17e7	4.94e7	5.42e7	2.32e7	inactive
zen (GeneID 40828)	DRSC12632	4.80e7	3.37e7	2.31e7	1.73e7	inactive
Or98a (GeneID 43341)	DRSC16774	2.70e7	4.48e7	1.41e7	2.03e7	inactive
CG14995 (GeneID 38487)	DRSC08452	4.87e7	4.01e7	3.49e7	1.61e7	inactive
CG14995 (GeneID 38487)	DRSC22991	3.81e7	3.55e7	1.85e7	1.44e7	inactive
Sesn (GeneID 37755)	DRSC04101	4.17e7		1.92e7		inactive
Sesn (GeneID 37755)	DRSC04102	3.86e7	3.94e7	1.87e7	1.76e7	inactive
Sesn (GeneID 37755)	DRSC04103	4.49e7	4.57e7	2.26e7	2.17e7	inactive
Thor (GeneID 33569)	DRSC00770	4.02e7		2.57e7		inactive
CG8066 (GeneID 41766)	DRSC16374	2.91e7	5.03e7	1.45e7	6.78e7	inactive
CG2269 (GeneID 36056)	DRSC06833	3.66e7	3.48e7	1.53e7	1.60e7	inactive
t-Grip91 (GeneID 34931)	DRSC01506	3.04e7	3.80e7	1.66e7	1.77e7	inactive
Cad99C (GeneID 43528)	DRSC15050	3.49e7	6.03e7	1.83e7	2.44e7	inactive
Cad99C (GeneID 43528)	DRSC16317	4.89e7	5.16e7	2.28e7	2.41e7	inactive
CG2260 (GeneID 31732)	DRSC18223	1.91e7	1.63e7	1.08e7	9.01e6	inactive
Tsp42Er (GeneID 35629)	DRSC06183	3.09e7	3.49e7	1.41e7	1.61e7	inactive
Tsp42Ee (GeneID 35614)	DRSC05947	5.55e7	4.19e7	2.33e7	1.72e7	inactive
MsrA (GeneID 39675)	DRSC11159	3.32e7	5.17e7	1.82e7	1.84e7	inactive
Rbpn-5 (GeneID 37395)	DRSC04440	3.74e7		1.91e7		inactive
Obp8a (GeneID 31860)	DRSC17868	2.91e7	4.63e7	1.47e7	2.16e7	inactive
CG42784 (GeneID 326165)	DRSC02534	3.36e7		1.71e7		inactive
CG42784 (GeneID 326165)	DRSC02535	2.22e7	3.94e7	1.34e7	1.98e7	inactive
CG42784 (GeneID 326165)	DRSC22272	2.42e7	3.60e7	1.19e7	2.03e7	inactive
CG42784 (GeneID 326165)	DRSC22804	3.08e7	3.68e7	1.53e7	1.92e7	inactive
CG42784 (GeneID 326165)	DRSC23000	4.44e7	4.22e7	2.07e7	1.82e7	inactive
polybromo (GeneID 42954)	DRSC14307	5.26e7	4.08e7	2.49e7	2.00e7	inactive
CG17786 (GeneID 42879)	DRSC15270	4.13e7	4.91e7	2.21e7	1.84e7	inactive
Neurochondrin (GeneID 40796)	DRSC12580	4.36e7	4.97e7	1.76e7	2.07e7	inactive
Ptpa (GeneID 33555)	DRSC00776	4.19e7		2.22e7		inactive
CG31522 (GeneID 40567)	DRSC12005	4.27e7	2.97e7	2.15e7	1.47e7	inactive
robl62A (GeneID 38170)	DRSC08153	3.73e7	4.44e7	1.88e7	2.10e7	inactive
Atg3 (GeneID 40044)	DRSC10736	4.32e7	3.95e7	2.08e7	1.81e7	inactive
Atg3 (GeneID 40044)	DRSC21758	3.05e7	3.09e7	1.82e7	1.49e7	inactive
hwt (GeneID 32202)	DRSC19386	4.47e7	2.99e7	2.08e7	1.54e7	inactive
hwt (GeneID 32202)	DRSC19695	2.87e7	5.66e7	1.51e7	2.53e7	inactive
CG17931 + CG42446	DRSC15293	3.51e7	4.83e7	1.76e7	7.68e7	inactive
fs(1)K10 (GeneID 47781)	DRSC18775	4.79e7	4.78e7	2.17e7	2.33e7	inactive
mab-21 (GeneID 44127)	DRSC18791	4.01e7	3.33e7	1.80e7	1.46e7	inactive
Lim3 (GeneID 35184)	DRSC02475	4.96e7	5.80e7	2.56e7	2.46e7	inactive
Lim3 (GeneID 35184)	DRSC03363	3.57e7	3.43e7	2.18e7	2.04e7	inactive
Lim3 (GeneID 35184)	DRSC22183	3.85e7	7.64e7	1.82e7	3.75e7	inactive
Lim3 (GeneID 35184)	DRSC22650	4.27e7	3.80e7	2.44e7	1.71e7	inactive
Lim3 (GeneID 35184)	DRSC23034	3.07e7	4.00e7	1.68e7	1.81e7	inactive
Msp300 (GeneID 3771968)	DRSC00854	3.63e7	3.47e7	1.95e7	1.63e7	inactive
Msp300 (GeneID 3771968)	DRSC00856	3.43e7	3.82e7	1.80e7	1.80e7	inactive
Msp300 (GeneID 3771968)	DRSC00857	3.57e7	4.03e7	2.02e7	1.93e7	inactive
Msp300 (GeneID 3771968)	DRSC00858	3.24e7	3.92e7	1.86e7	1.79e7	inactive
Msp300 (GeneID 3771968)	DRSC02360	3.81e7	4.45e7	1.93e7	2.11e7	inactive
Msp300 (GeneID 3771968)	DRSC03369	3.74e7		1.95e7		inactive
Msp300 (GeneID 3771968)	DRSC03370	4.10e7	4.20e7	2.11e7	1.96e7	inactive
